Data reported in paper PMC7333360.
Positions count from the first letter of the chain named. No constants are given. Whether binding was seen depends on the method and setting. In cells and extracts the contact can be indirect. Some results given as binding are weak or reduced against the parent protein; the word gives no strength.

Tests used:
[1] = target: T1, TAB1 S393A, mouse (from homozygous Tab1 S393A knock-in mice) (mouse (endogenous in brain tissue)) (UniProt Q8CF89); assay: co-IP; endogenous TAB1 immunoprecipitated from 1 mg cleared mouse brain lysate (1 % Triton-X100 lysis buffer with 10 μM GlcNAcstatin G) with 10 μg anti-TAB1 on Dynabeads Protein G, 2 h at 4 °C; washes with lysis buffer containing 0.25 M NaCl; blotted with anti-TAK1 and anti-TAB1; IgG isotype …
T1 sequence: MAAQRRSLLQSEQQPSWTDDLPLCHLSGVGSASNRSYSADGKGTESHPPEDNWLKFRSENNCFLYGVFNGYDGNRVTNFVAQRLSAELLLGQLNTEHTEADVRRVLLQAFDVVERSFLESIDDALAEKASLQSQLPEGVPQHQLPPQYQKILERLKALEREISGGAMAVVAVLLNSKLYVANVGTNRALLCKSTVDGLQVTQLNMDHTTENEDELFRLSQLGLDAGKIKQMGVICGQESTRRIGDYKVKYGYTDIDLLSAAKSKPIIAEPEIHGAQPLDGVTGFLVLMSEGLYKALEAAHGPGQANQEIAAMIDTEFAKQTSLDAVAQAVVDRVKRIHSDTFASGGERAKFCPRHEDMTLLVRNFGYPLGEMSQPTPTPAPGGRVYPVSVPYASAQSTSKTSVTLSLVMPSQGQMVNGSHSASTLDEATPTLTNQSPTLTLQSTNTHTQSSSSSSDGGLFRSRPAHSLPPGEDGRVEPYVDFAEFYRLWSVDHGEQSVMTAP

[2] = target: T2, TGF-β activated kinase-1 binding protein-1 (TAB1), wild type, mouse (mouse (endogenous in brain tissue)) (UniProt Q8CF89); assay: as above
T2 sequence (chain, O-GlcNAc at Ser393 (TAB1 was found glycosylated in WT animals)): T1 sequence with A393S

B1: TGF-β activated kinase-1 (TAK1), mouse (protein, UniProt Q62073 1-579)
chain: MSTASAASSSSSSSASEMIEAPSQVLNFEEIDYKEIEVEEVVGRGAFGVVCKAKWRAKDVAIKQIESESERKAFIVELRQLSRVNHPNIVKLYGACLNPVCLVMEYAEGGSLYNVLHGAEPLPYYTAAHAMSWCLQCSQGVAYLHSMQPKALIHRDLKPPNLLLVAGGTVLKICDFGTACDIQTHMTNNKGSAAWMAPEVFEGSNYSEKCDVFSWGIILWEVITRRKPFDEIGGPAFRIMWAVHNGTRPPLIKNLPKPIESLMTRCWSKDPSQRPSMEEIVKIMTHLMRYFPGADEPLQYPCQYSDEGQSNSATSTGSFMDIASTNTSNKSDTNMEQVPATNDTIKRLESKLLKNQAKQQSESGRLSLGASRGSSVESLPPTSEGKRMSADMSEIEARIVATAGNGQPRRRSIQDLTVTGTEPGQVSSRSSSPSVRMITTSGPTSEKPARSHPWTPDDSTDTNGSDNSIPMAYLTLDHQLQPLAPCPNSKESMAVFEQHCKMAQEYMKVQTEIALLLQRKQELVAELDQDEKDQQNTSRLVQEHKKLLDENKSLSTYYQQCKKQLEVIRSQQQKRQGTS
In the case of B1, the binding [1] is reported as “binds” and the binding [2] is reported as “binds”.
